Data as given in paper PMC5291249.

Legend:
[1] = biological target: murine p53 (mp53) (mouse) (UniProt P02340); assay: EMSA (GA cross-linked SDS-PAGE); details: 25 mM Tris-HCl pH 7.5, 2 mM DTT, 100 mM NaCl, 1 mM ADP, 5 mM MgCl2 (or 20 mM HEPES pH 7.5, 10 mM ADP), 25 C, then 0.025% glutaraldehyde 20 min, recombinant protein
[2] = biological target: human p53 (hp53) (Homo sapiens) (UniProt P04637); assay: EMSA (GA cross-linked SDS-PAGE); details: 25 mM Tris-HCl pH 7.5, 2 mM DTT, 100 mM NaCl, 1 mM ADP, 5 mM MgCl2 (or 20 mM HEPES pH 7.5, 10 mM ADP), 25 C, then 0.025% glutaraldehyde 20 min; recombinant protein; residues 1-393
mp53Δ30 (mouse) [3] = biological target: mp53Δ30 (mouse) (UniProt P02340); assay: EMSA (GA cross-linked SDS-PAGE); details: as full length; 25 mM Tris-HCl pH 7.5, 2 mM DTT, 100 mM NaCl, 1 mM ADP, 5 mM MgCl2 (or 20 mM HEPES pH 7.5, 10 mM ADP), 25 C, then 0.025% glutaraldehyde 20 min; recombinant protein
mp53Δ30 (mouse) [4] = biological target: mp53Δ30 (mouse) (UniProt P02340); assay: EMSA (GA cross-linked, IR dye); details: 25 mM Tris-HCl pH 7.5, 2 mM DTT, 100 mM NaCl, 1 mM ADP, 5 mM MgCl2 (or 20 mM HEPES pH 7.5, 10 mM ADP), 25 C, then 0.025% glutaraldehyde 20 min; recombinant protein; label: 5' IR800 both strands
[5] = biological target: murine p53 (mp53) (mouse) (UniProt P02340); assay: EMSA (GA cross-linked, IR dye); details: 25 mM Tris-HCl pH 7.5, 2 mM DTT, 100 mM NaCl, 1 mM ADP, 5 mM MgCl2 (or 20 mM HEPES pH 7.5, 10 mM ADP), 25 C, then 0.025% glutaraldehyde 20 min, recombinant protein, label: 5' IR800 both strands
[6] = biological target: human p53 (hp53) (Homo sapiens) (UniProt P04637); assay: EMSA (GA cross-linked, IR dye); details: 25 mM Tris-HCl pH 7.5, 2 mM DTT, 100 mM NaCl, 1 mM ADP, 5 mM MgCl2 (or 20 mM HEPES pH 7.5, 10 mM ADP), 25 C, then 0.025% glutaraldehyde 20 min, recombinant protein, residues 1-393, label: 5' IR800 both strands
[7] = no stimulation of multiple tetramers over no DNA, letters put together from the description
[8] = no stimulation of multiple tetramers

## AGACATGCCTAGACAAATTA (double strand) [DNA2]
[1]; [7]
  binding result: binds more weakly

## AGACATGCCTATGAATGCCT (double strand) [DNA3]
[1]; [7]
  binding result: binds more weakly

## AGACATGCCTATGAATTAAT (double strand) [DNA5]
[1]; [7]
  binding result: binds more weakly

## AGCATTGGCTTTCTGGCCATCAGAAGACATGCCTGTGGAAGACATGCCTAGCTCTGGCATAGAAGAGGCGCT / AGCGCCTCTTCTATGCCAGAGCTAGGCATGTCTATCCACAGGCATGTCTCTGATGGCCAGAAAGCCAATGCT [DNA35]
[1]
  binding result: binds more weakly
[2]
  binding result: binds more weakly

## AGCATTGGCTTTCTGGCCATCAGAGACATGCCTAGACAAATTAAGCTCTGGCATAGAAGAGGCGCT (double strand) [DNA22]
mp53Δ30 (mouse) [3]
  binding result: binds more weakly
[1]; [8]
  binding result: binds more weakly

## AGCATTGGCTTTCTGGCCATCAGAGACATGCCTAGACATGCCTAGCTCTGGCATAGAAGAGGCGCT (double strand) [DNA21]
mp53Δ30 (mouse) [3]
  binding result: binds

## AGCATTGGCTTTCTGGCCATCAGAGACATGCCTATGAATGCCTAGCTCTGGCATAGAAGAGGCGCT (double strand) [DNA23]
mp53Δ30 (mouse) [3]
  binding result: binds more weakly
[1]; [8]
  binding result: binds more weakly

## AGCATTGGCTTTCTGGCCATCAGAGACATGCCTATGAATTAATAGACATGCCTAGCTCTGGCATAGAAGAGGCGCT (double strand) [DNA36 (10 bp spacer)]
[1]
  binding result: binds more weakly
[2]
  binding result: binds more weakly

## AGCATTGGCTTTCTGGCCATCAGAGACATGCCTATGAATTAATAGCTCTGGCATAGAAGAGGCGCT (double strand) [DNA25]
mp53Δ30 (mouse) [3]
  binding result: binds more weakly
[1]; [8]
  binding result: binds more weakly

## AGCATTGGCTTTCTGGCCATCAGAGACATGCCTATGCCTTAATATGAAAGACATGCCTAGCTCTGGCATAGAAGAGGCGCT (double strand) [DNA37 (15 bp spacer)]
[1]
  binding result: binds more weakly
[2]
  binding result: binds more weakly

## AGCATTGGCTTTCTGGCCATCAGAGACATGCCTGTAGACATGCCTAGCTCTGGCATAGAAGAGGCGCT (double strand) [DNA32 (2 bp spacer)]
[1]
  binding result: binds more weakly
[2]
  binding result: binds more weakly

## AGCATTGGCTTTCTGGCCATCAGAGACATGCCTGTGAGACATGCCTAGCTCTGGCATAGAAGAGGCGCT (double strand) [DNA33 (3 bp spacer)]
[1]
  binding result: binds more weakly
[2]
  binding result: binds more weakly

## AGCATTGGCTTTCTGGCCATCAGAGACATGCCTGTGGAGACATGCCTAGCTCTGGCATAGAAGAGGCGCT (double strand) [DNA34 (4 bp spacer)]
[1]
  binding result: binds more weakly
[2]
  binding result: binds more weakly

## AGCATTGGCTTTCTGGCCATCAGAGACATGTCCACAGACTTGTCTAGCTCTGGCATAGAAGAGGCGCT (double strand) [Tigar_SP (2 bp spacer)]
[1]
  binding result: binds more weakly
[2]
  binding result: binds more weakly

## AGCATTGGCTTTCTGGCCATCAGATGAAAGACATGCCTTTAATAGCTCTGGCATAGAAGAGGCGCT (double strand) [DNA24]
mp53Δ30 (mouse) [3]
  binding result: binds more weakly
[1]; [8]
  binding result: binds more weakly

## AGCATTGGCTTTCTGGCCATCAGGAAAATTTCCCAAAATTTTGAGCTCTGGCATAGAAGAGGCGCT (double strand) [DNA20]
mp53Δ30 (mouse) [3]
  binding result: binds more weakly
[1]; [8]
  binding result: binds more weakly

## ATGAAAGACATGCCTTTAAT (double strand) [DNA4]
[1]; [7]
  binding result: binds more weakly

## ATGAAATGAACATGTCTGAGGCATGCTGAATTAA (double strand) [gadd45_1]
mp53Δ30 (mouse) [4]
  binding result: binds

## GAAATGAACATGTCTGTGTAAGGCATGCTGAATTA (double strand) [gadd45_5]
mp53Δ30 (mouse) [4]
  binding result: binds more weakly
[5]
  binding result: binds more weakly
[6]
  binding result: binds more weakly

## GAAATTCGATCCTCTATGAATTAATAATTA (double strand) [NSP]
[5]; negative control
  binding result: binds more weakly
[6]; negative control
  binding result: binds more weakly

## TGAAATGAACATGTCTGTAGGCATGCTGAATTAA (double strand) [gadd45_2]
mp53Δ30 (mouse) [4]
  binding result: binds more weakly
[5]
  binding result: binds more weakly
[6]
  binding result: binds more weakly

## TGAAATGAACATGTCTGTGAGGCATGCTGAATTA (double strand) [gadd45_3]
mp53Δ30 (mouse) [4]
  binding result: binds more weakly
[5]
  binding result: binds more weakly
[6]
  binding result: binds more weakly

Weaker means in comparison with the reference protein, sequence or condition of that experiment. For at least one entry, the source does not settle the construct or the ends of the probe. At least one verdict rests on a figure or table, not on a statement of the authors.
